PubChem BioAssay AID652272 – Drosophila RNAi Screening Center, 2013

Purpose: 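Genome-wide knock-down search for components of Hedgehog signalling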 (primary screen)
Cell system: Drosophila clone 8 (Cl8) cells
Knock-down reagent: long dsRNA against Drosophila genes
Measurement: 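Plate reader light from a firefly reporter under a ptc promoter fragment that responds to Hedgehog, with Renilla light as transfection reference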
Scale: firefly Hh reporter signal: higher = more ptc reporter light; Renilla reference signal: higher = more Renilla control light
Hit rule: 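Hit when the z-score averaged over two replicates is under -2 or over +3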
Calls: active = hit: reporter lowered or raised; inactive = not a hit
The deposit covers about 21,000 reagents; this is a random part of those that have a named target and a result. Of all reagents, 503 (2.4%) got an active call. 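Raw plate light values, not normalised; calls rest on replicate z-scores that were not deposited; hits include reporter decreases as well as increases.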 Names joined by + are all predicted targets of the reagent. Reagent sequences are not shown. The record does not give: the amount of reagent, the time to read-out.

predicted target | amplicon | firefly Hh reporter signal, replicate 1 | firefly Hh reporter signal, replicate 2 | firefly Hh reporter signal, replicate 3 | Renilla reference signal, replicate 1 | Renilla reference signal, replicate 2 | activity call
TwdlL | DRSC16042 | 1.56e5 | 90503 | – | 3440 | 2283 | inactive
aust | DRSC02558 | 68400 | 40580 | – | 1830 | 3815 | inactive
CG31751 | DRSC02464 | 76192 | 48385 | – | 1645 | 4372 | inactive
CG31751 | DRSC02465 | 68163 | 54792 | – | 1638 | 4123 | inactive
jumu | DRSC16651 | 49745 | 58331 | – | 1814 | 1797 | inactive
sip1 | DRSC03609 | 63920 | 36640 | – | 1760 | 3530 | inactive
CG31827 + CG18478 | DRSC01958 | 1.03e5 | 65956 | – | 2872 | 5748 | inactive
Ir76b | DRSC10831 | 91621 | 1.23e5 | – | 2167 | 3540 | inactive
CG4766 | DRSC17736 | 76154 | 2.20e5 | – | 2756 | 8981 | inactive
CG2701 | DRSC18590 | 1.14e5 | 81378 | – | 2555 | 2749 | inactive
CG1314 | DRSC20495 | 1.25e5 | 1.33e5 | – | 3480 | 2928 | inactive
CG15219 | DRSC03715 | 93250 | 1.00e5 | – | 1866 | 6896 | inactive
Srp72 | DRSC15800 | 1.14e5 | 64267 | – | 5212 | 2660 | inactive

Continued, starting with the last 2 of the part before.
predicted target | amplicon | firefly Hh reporter signal, replicate 1 | firefly Hh reporter signal, replicate 2 | firefly Hh reporter signal, replicate 3 | Renilla reference signal, replicate 1 | Renilla reference signal, replicate 2 | activity call
CG15219 | DRSC03715 | 93250 | 1.00e5 | – | 1866 | 6896 | inactive
Srp72 | DRSC15800 | 1.14e5 | 64267 | – | 5212 | 2660 | inactive
Rpt6 | DRSC20571 | 68264 | 84508 | – | 2246 | 3069 | active
Dsk | DRSC12347 | 68233 | 1.02e5 | – | 2331 | 2905 | inactive
CG10877 | DRSC14274 | 5.64e5 | 1.05e5 | – | 29851 | 2688 | inactive
RpS23 | DRSC07169 | 37177 | 18473 | – | 3449 | 1718 | active
DCTN3-p24 | DRSC04592 | 1.17e5 | 56742 | – | 5005 | 2640 | inactive
ari-1 | DRSC20308 | 1.23e5 | 4.17e5 | – | 3898 | 15653 | inactive
CG5327 | DRSC06930 | 1.23e5 | 65627 | – | 3288 | 4317 | inactive
hpRNA:CR32205 | DRSC09610 | 2.10e5 | – | – | 5379 | – | inactive
hpRNA:CR32205 | DRSC09890 | 86352 | 97665 | – | 3184 | 2674 | inactive
Tango10 | DRSC19807 | 2.18e5 | 1.26e5 | – | 4232 | 3248 | inactive
CtsL1 | DRSC05462 | 1.01e5 | 2.30e5 | – | 6981 | 9156 | inactive
CtsL1 | DRSC07363 | 58624 | 59942 | – | 2900 | 2532 | inactive
CG15382 | DRSC00397 | 78121 | 80310 | – | 2176 | 1597 | inactive
Cpr49Ac | DRSC07199 | 1.08e5 | 98657 | – | 4560 | 3643 | inactive
Sod2 | DRSC07554 | 1.29e5 | 1.13e5 | – | 5077 | 4384 | inactive
CG12984 | DRSC11693 | 1.03e5 | 1.20e5 | – | 3544 | 3185 | inactive
CG8526 | DRSC16438 | 98832 | 1.74e5 | – | 3033 | 5192 | inactive
Arc2 | DRSC06436 | 77782 | 43672 | – | 1929 | 3011 | inactive
CG17154 | DRSC10253 | 24330 | 53389 | 45810 | 5197 | 3638 | inactive
D1 | DRSC16638 | 1.13e5 | 1.07e5 | – | 4513 | 3746 | inactive
CG30379 | DRSC05070 | 89928 | 1.81e5 | – | 8411 | 8432 | inactive
Smug | DRSC15762 | 1.02e5 | 1.06e5 | – | 2160 | 7286 | inactive
Tnpo | DRSC11309 | 74436 | 64229 | – | 3081 | 2278 | inactive
CG4462 | DRSC15583 | 1.04e5 | 63962 | – | 4279 | 2779 | inactive
cactin | DRSC20576 | 49008 | 1.27e5 | – | 1415 | 6029 | inactive
Gr43a | DRSC06658 | 1.04e5 | 47589 | – | 2508 | 3996 | inactive
